Each number is a percent effect as filed. The controls that fix the scale are not given in the record; negative values are as filed. Compounds were drawn at random from those tested, without regard to their results. Two or more numbers in one place are separate tests of the same structure; such repeats can differ widely.

A: 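Growth of Mycobacterium tuberculosis over 4 days (cholesterol / DPPC medium with tyloxapol); the read-out is not stated. Compounds at 50 µM. Direction is inferred from retests: higher values go with more growth inhibition. About 69,000 compounds were tested under these conditions; 0.54% (about 370) showed 50% or more at least once.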
B: 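Whole-cell growth test on Mycobacterium tuberculosis, read after 3 days in glucose-containing 7H9 medium; the read-out is not stated. Tested at 50 µM. Higher reads as more growth inhibition (inferred: compounds with an IC50 in retests scored well above the rest). About 69,000 compounds were tested under these conditions; 1.1% (about 760) showed 50% or more at least once.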

| SMILES | A | B |
|---|---|---|
| `O=C(COCc1ccccc1)N1CCCC(n2cncn2)C1` (stereo not given) | -0.585% | -15.36% |
| `CCn1c(C2CCCN(C(=O)C(C)(C)OC)C2)nn(CCN(C)C)c1=O` (stereo not given) | -8.41% & -1.368% | 3.805% |
| `CC(=O)N[C@@H]1CN(C(=O)c2csc(C(C)C)n2)C[C@H]1C(C)C` | -7.9% | 0.3414% & -11.18% |
| `CC(NC(=O)CN(C)S(C)(=O)=O)c1ccc(F)cc1` (stereo not given) | -4.441% | 9.201% |
| `Cc1nnc(C(C)N2CCc3[nH]c4ccc(Cl)cc4c3C2)o1` (stereo not given) | 8.16% | 31.79% |
| `CC(c1ccccc1)N(C)C(=O)Cn1cc(NC(=O)C(C)(C)C)cn1` (stereo not given) | 27.36% | 21.15% |
| `CNC(=O)C1(C)CCCN(c2cnccn2)C1` (stereo not given) | -11.96% | -9.529% |
| `OCCn1nccc1C1CCN(CCOc2ccccc2Cl)CC1` | -18.44% | 0.4946% |
| `Cc1nsc(NC2CC(=O)N(C(C)(C)C)C2)n1` (stereo not given) | -8.607% | 6.459% |
| `CC(C)c1noc(CN2CCN(C(=O)c3cc(Cl)ccc3F)CC2)n1` | 2.173% | 2.865% & 14.43% |
| `O=C(Cc1nc(-c2ccncc2)n[nH]1)N1CCOCC1` | -4.286% | -4.564% |
| `Cc1cccc(NC(=O)NC2CCC3(C2)OCCO3)c1Cl` (stereo not given) | 6.599% | 13.16% & 2.785% |
| `O=C(CN1CCOCC1)Nc1ncc(Br)cc1Br` | 4.65% | -7.202% & -7.901% |
| `CN(Cc1cnn(C)c1)C(=O)NC1CCC(O)CC1` (stereo not given) | -2.394% | -8.448% & 14.46% |
| `CCc1nc(CN2CCCN(C(=O)c3c(C)noc3C)CC2)cs1` | 10.1% | -24.26% |
| `O=C(Nc1ccc(-c2ccn[nH]2)cc1)C1CCCN(Cc2ccoc2)C1` (stereo not given) | -20.37% | 18.53% |
| `Cc1nc(C2CCCN2C(=O)CCCOc2ccccc2C)no1` (stereo not given) | 2.251% & -110.6% | -9.159% |
| `Cc1cc(CN2CCCC2Cn2cccn2)no1` (stereo not given) | 9.766% | -2.7% |
| `CCCN1CCC(N2CCN(c3cc(C)nc(C)c3)CC2)CC1` | 6.463% | 15.34% |
| `Cn1cnnc1Sc1ccc(NC(=O)C2CC2)cc1Cl` | 9.85% | 20.55% |
| `COc1c(CNCc2ccc(CN(C)C)cc2)c(C(C)C)nn1C` | 3.414% | 5.141% |
| `CCC(C)C(=O)N(CC(=O)OC)c1cccc(C)n1` (stereo not given) | -4.718% | -19.31% |
| `CN1CCc2[nH]cnc2C12CCN(Cc1ccc(S(C)(=O)=O)cc1)CC2` | -1.725% | -4.77% & -0.3652% |
| `NCC1Cc2cc(-c3nccc(N4CCC(O)CC4)n3)cc(F)c2O1` (stereo not given) | 15.12% | 3.053% |
| `COC(=O)c1cc2n(n1)CCCN(C(=O)Cc1c[nH]c3ccccc13)C2` | 5.875% | -3.208% & 13.75% |
| `CSc1ccc(C(=O)N2CCOCC2c2c(C)nn(C)c2C)o1` (stereo not given) | 1.49% | -17.19% |
| `O=C(NCCNc1ncccn1)Nc1cc(C(F)(F)F)c[nH]c1=O` | -13.18% | 7.972% |
| `CC(C)c1ccc(CN2CCN(C(=O)c3cc(C4CC4)[nH]n3)CC2)cc1` | -29.84% | -4.413% & -31.98% |
| `c1ncc(CN2CC(Cc3nccc4cc[nH]c34)C2)cn1` | -2.299% | -4.846% |
| `C1CCCN(C2CCCN(Cc3noc(C4CC4)n3)C2)CC1` (stereo not given) | -14.12% | 10.42% |
| `OCc1cccc(OCc2ccon2)c1` | 17.73% | 15.96% |
| `COCCN1CCc2ccc(=O)n(Cc3csc(C)n3)c2CC1.O=C(O)C(F)(F)F.O=C(O)C(F)(F)F` | -12.44% | -27.56% & -3.49% |
| `CCNC(=O)[C@@H]1C[C@H](N)CN1C(=O)CCc1ccc(C)c(C)c1` | -16.6% & 6.493% | -9.802% |
| `COc1cc(F)ccc1N(C)Cc1cccnc1` | -22.22% | -13.84% |
| `COC(C)(C)C(=O)N1CCC(c2cc(CN(C)C)n(C)n2)CC1.Cl` | -5.432% & -26.24% | -32.08% |
| `Cc1cc(CN(C)C(=O)NCc2cccc(N3CCCC3=O)c2)no1` | -4.403% | 5.424% |
| `Cn1cc(N2CCCC(Nc3ccc4c(c3)NC(=O)CC4)C2=O)cn1` (stereo not given) | -10.05% | -18.96% |
| `Cn1ccc(C(=O)Nc2nnc(-c3ccccn3)[nH]2)cc1=O` | -10.98% | -1.611% & -29.65% |
| `Cc1cccc(N2CCN(C(=O)C3CC4(CCNCC4)CN3)CC2)n1` (stereo not given) | -21.15% | -41.87% |
| `CCc1nc(C)sc1CN1CC[C@@](O)(C2CCOCC2)[C@H](C)C1` | 4.034% | -6.223% |
| `CCCc1cc(C(=O)N2CCC3(CCCN(CCO)C3=O)C2)cs1` (stereo not given) | 4.171% | 30.71% & 3.052% |
| `COCC1c2c(cnn2CC2CC2)CCN1Cc1cc(C)on1.O=C(O)C(F)(F)F.O=C(O)C(F)(F)F` (stereo not given) | 3.594% | 14.36% |
| `CC(C)C1CN(S(=O)(=O)N2CCCC2)CCCN1Cc1ccc(F)cc1` (stereo not given) | 5.324% | 11.93% & 16.57% |
| `CCCc1cncnc1N1CCC(NCc2cc3ccccc3[nH]2)CC1` | 69.19% | 63.05% & 71.71% |
| `Cc1cc(CC(=O)NC2CCCN(Cc3ccccc3)C2=O)n[nH]1` (stereo not given) | -1.902% | 4.267% |
| `c1ccc(COc2cccc(CNC3CCc4ncnn4C3)c2)cc1` (stereo not given) | -19.46% | 11.74% |
| `CC1(C)CN(C(=O)c2ccccc2-n2cncn2)CC1(C)O` (stereo not given) | -15.56% | -21.27% & 1.24% |
| `CCN(CC)S(=O)(=O)c1cccc(C(=O)N(C)Cc2ccsc2)c1` | -28.72% | -17.83% |
| `O=C(N1CCCC1)N1CCC2(CC1)COCCN(Cc1cccnc1)C2.O=C(O)C(F)(F)F.O=C(O)C(F)(F)F` | -25.77% & -9.5% | -15.64% |

Once more, the final 4:

SMILES	A	B
c1ccc(COc2cccc(CNC3CCc4ncnn4C3)c2)cc1 (stereo not given)	-19.46%	11.74%
CC1(C)CN(C(=O)c2ccccc2-n2cncn2)CC1(C)O (stereo not given)	-15.56%	-21.27% & 1.24%
CCN(CC)S(=O)(=O)c1cccc(C(=O)N(C)Cc2ccsc2)c1	-28.72%	-17.83%
O=C(N1CCCC1)N1CCC2(CC1)COCCN(Cc1cccnc1)C2.O=C(O)C(F)(F)F.O=C(O)C(F)(F)F	-25.77% & -9.5%	-15.64%

Source: ChEMBL document CHEMBL3988442, “University of Dundee, Small-Polar-MMV Screening Library” (2021).